{"source": "patent US20130330756A1", "about": "“DETECTION OF BACTERIA EXHIBITING ENZYMATIC RESISTANCE TO CARBAPENEMS” (BIOMERIEUX, priority 2011, published 2013)", "system": "19 impermeability-resistant (IR) strains", "test": "Ertapenem E-test MIC, all 19 IR strains (TOTAL)", "format": "cell-based", "conditions": "4 IR strains for which the impact of PAbetaN cannot be evaluated", "method": "The effect of cloxacillin and PAbetaN on the MICs of the strains with ertapenem was evaluated firstly using E-test® strips in Mueller Hinton medium. […] The second test consisted in evaluating the impact of these 2 compounds on the MICs with ertapenem of 29 carbapenemases-producing strains (+1 ESBL).\nTest B100904: the 19 impermeability-resistant (IR) strains belong to the following species: 10 Enterobacter aerogenes, 2 Enterobacter cloacae, 1 Citrobacter freundii, 1 Pseudomonas aeruginosa, 3 Proteus mirabilis and 2 Morganella morganii.\nThe E-tests were performed in Mueller-Hinton medium supplemented or not supplemented with cloxacillin and/or PAbetaN according to Table I:\n2. Test • Production for each strain of an approximately 0.5 McF suspension in a 0.85% NaCl ampule. • Seeding of the 4 media by semi-automatic swabbing. • Drying of the dishes at ambient temperature for 5 to 15 min. • Application of the ertapenem E-test® strip. • Incubation for 16 to 20 hours at 37° C.", "note": "Some entries share one result that the patent states for a list of compounds."}
{"smiles": "Cc1onc(-c2ccccc2Cl)c1C(=O)N[C@@H]1C(=O)N2[C@@H]1SC(C)(C)[C@@H]2C(=O)O", "note": "[CLX, cloxacillin]", "values": [{"measurement": "MIC with ertapenem in medium with the named additive", "result": "< 0.002"}]}
